Measurements published in patent US8481679B2, “Immobilizing an entity in a desired orientation on a support material” (Arizona Board of Regents Acting on behalf of Arizona State …, priority 2007, dated 2013).
Some compounds share one wording; it may come from a single statement.

Test: Corning Epic immobilization of candidate peptides to microplate wells without carbonic anhydrase
Conditions: 24 replicates, BMPH linker

Substance	wavelength shift on immobilization of peptide to Epic well surface
CA1: 20-residue candidate attachment peptide for carbonic anhydrase, C-terminal glycine-serine-cysteine; sequence only in FIG. 6A (FNAPIWWYIYPRHVRHAGSC; CA1 (Carbonic Anhydrase Peptide 1))	relatively low wavelength shift
CA2: 20-residue candidate attachment peptide for carbonic anhydrase, C-terminal glycine-serine-cysteine; sequence only in FIG. 6A (FRNFPVPVIFRYLNPWPGSC; CA2 (Carbonic Anhydrase Peptide 2))	relatively low wavelength shift
CA3: 20-residue candidate attachment peptide for carbonic anhydrase, C-terminal glycine-serine-cysteine; sequence only in FIG. 6A (HKHFFHHWHWFHKRRWFGSC; CA3 (Carbonic Anhydrase Peptide 3))	relatively low wavelength shift
CA12: 20-residue candidate attachment peptide for carbonic anhydrase, C-terminal glycine-serine-cysteine; sequence only in FIG. 6A (SIGIYGHAIARPGGWYFGSC; CA12 (Carbonic Anhydrase Peptide 12))	relatively low wavelength shift
